Laboratory results taken from PMC7725820, “Heme biosynthesis depends on previously unrecognized acquisition of iron-sulfur cofactors in human amino-levulinic acid dehydratase” (Nature Communications, 2020).

Target: T1, C-terminally FLAG/MYC-tagged wild-type ALAD (human) (UniProt P13716)
T1 sequence: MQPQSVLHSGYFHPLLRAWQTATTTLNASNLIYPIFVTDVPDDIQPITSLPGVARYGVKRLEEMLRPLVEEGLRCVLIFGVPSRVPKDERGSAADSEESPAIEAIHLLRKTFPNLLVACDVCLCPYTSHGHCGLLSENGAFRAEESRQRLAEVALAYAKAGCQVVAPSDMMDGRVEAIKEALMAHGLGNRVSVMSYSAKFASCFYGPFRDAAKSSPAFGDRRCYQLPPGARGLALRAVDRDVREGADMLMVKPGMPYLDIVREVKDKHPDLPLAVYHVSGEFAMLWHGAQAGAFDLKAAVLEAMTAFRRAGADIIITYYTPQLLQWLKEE
Assay: co-IP; whole-cell lysates of HeLa cells transfected with FLAG/MYC-tagged ALAD, anti-FLAG M2 affinity gel, 4 °C overnight, acidic elution (Tris-glycine, pH 2.8), Western blot

binding: no binding
Substance: mitochondrial HSC20 (M-HSC20) (human (endogenous in HeLa))

No constants are given. Whether binding was seen depends on the method and setting. In cells and extracts the contact can be indirect. Sequences can lack the tags named with a protein.
